Data published in patent US20090305339A1, “Polypeptides With Laccase Activity” (VIALACTIA BIOSCIENCES (NZ) LIMITED, priority 2006, published 2009).

B1: H73A: RL5 laccase mutant, histidine 73 replaced by alanine (protein)
chain: MIELEKLDFAKSVEGVEAFSTTRGQVDGRNAYSGVNLCDYVGDDALRVLDARLTLAMQLGVDLDDLVMPRQTASCRVAVIDERFRALDIDEQEAALEGVDALVTRLQGIVIGVNTADCVPIVLVDSQAGIVAVSHAGWRGTVGRIAKAVVEEMCRQGATVDRIQAAMGPSICQDCFEVGDEVVEAFKKAHFNLNDIVVRNPATGKAHIDLRAANRAVLVAAGVPAANIVESQHCSRCEHTSFFSARRLGINSGRTFTGIYRK
B2: H135A: RL5 laccase mutant, histidine 135 replaced by alanine (protein)
chain: B1 chain with A73H, H135A
B3: H233A: RL5 laccase mutant, histidine 233 replaced by alanine (protein)
chain: B1 chain with A73H, H233A
B4: H207A: RL5 laccase mutant, histidine 207 replaced by alanine (protein)
chain: B1 chain with A73H, H207A
B5: C118Q: RL5 laccase mutant, cysteine 118 replaced by glutamine (protein)
chain: B1 chain with A73H, C118Q
B6: C75Q: RL5 laccase mutant, cysteine 75 replaced by glutamine (protein)
chain: B1 chain with A73H, C75Q
B7: H190A: RL5 laccase mutant, histidine 190 replaced by alanine (protein)
chain: B1 chain with A73H, H190A
B8: H239A: RL5 laccase mutant, histidine 239 replaced by alanine (protein)
chain: B1 chain with A73H, H239A

Assay: Copper content by ICP-MS
Conditions: for decrease of copper binding: versus wild type

Molecule	decrease of copper binding	metal content relative to wild type enzyme [%]	also measured
B1	approx. 25%	–	–
B2	approx. 25%	–	–
B3	approx. 25%	–	–
B4	–	75	–
B5	–	–	copper content: 3 molecules of copper per monome
B6	–	–	copper content: 3 molecules of copper per monome
B7	–	75	–
B8	–	75	–

Positions count from the first letter of the chain named. Names may count otherwise.
